Measurements: paper PMC4260354
Results are given in words; binding and its absence hold for the method and conditions named. Binding seen in cells or lysates may run through a third protein. These calls come from enrichment with a bait or labelling near it, and not all partners need be listed. Where a sequence is shown, tags or fusion partners need not be part of it.

How the values were obtained:
Experiment in all cases: affinity purification with mass spectrometry; protein extracts of flower tissue of transgenic plants; anti-Flag M1 agarose, eluted with 3x Flag peptides, SDS-PAGE, silver staining, in-gel trypsin digestion, mass spectrometry; wild-type control
[1] = target: T1, CHR27-Myc (Arabidopsis) (UniProt Q9LHE4)
T1 sequence: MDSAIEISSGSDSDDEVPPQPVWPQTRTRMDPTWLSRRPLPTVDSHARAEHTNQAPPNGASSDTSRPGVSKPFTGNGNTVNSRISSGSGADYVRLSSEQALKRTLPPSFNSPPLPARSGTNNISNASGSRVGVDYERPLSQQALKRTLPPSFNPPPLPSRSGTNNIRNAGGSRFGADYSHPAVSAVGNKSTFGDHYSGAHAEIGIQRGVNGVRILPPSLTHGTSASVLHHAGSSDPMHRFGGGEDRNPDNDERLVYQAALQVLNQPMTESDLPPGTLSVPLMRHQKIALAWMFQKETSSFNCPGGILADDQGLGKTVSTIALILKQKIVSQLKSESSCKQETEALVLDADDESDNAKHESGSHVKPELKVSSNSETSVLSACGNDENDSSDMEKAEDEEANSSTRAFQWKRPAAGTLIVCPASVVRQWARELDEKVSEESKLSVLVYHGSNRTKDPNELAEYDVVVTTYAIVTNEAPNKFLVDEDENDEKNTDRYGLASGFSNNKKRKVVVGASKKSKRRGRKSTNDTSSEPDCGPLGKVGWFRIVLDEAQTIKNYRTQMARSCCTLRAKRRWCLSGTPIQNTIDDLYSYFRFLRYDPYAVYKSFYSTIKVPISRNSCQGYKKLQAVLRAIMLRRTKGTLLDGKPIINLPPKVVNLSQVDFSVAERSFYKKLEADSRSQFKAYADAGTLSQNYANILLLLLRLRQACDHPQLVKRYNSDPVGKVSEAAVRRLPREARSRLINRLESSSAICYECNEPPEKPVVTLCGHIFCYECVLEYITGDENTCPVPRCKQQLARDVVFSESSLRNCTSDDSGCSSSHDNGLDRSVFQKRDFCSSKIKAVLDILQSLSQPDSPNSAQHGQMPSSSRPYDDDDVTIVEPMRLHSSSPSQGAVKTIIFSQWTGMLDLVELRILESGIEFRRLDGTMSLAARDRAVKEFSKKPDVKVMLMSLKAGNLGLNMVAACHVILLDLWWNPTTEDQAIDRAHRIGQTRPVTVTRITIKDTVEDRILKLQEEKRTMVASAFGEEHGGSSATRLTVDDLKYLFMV

[2] = target: T2, SUVR1-Flag (Arabidopsis) (UniProt Q946J2)
T2 sequence: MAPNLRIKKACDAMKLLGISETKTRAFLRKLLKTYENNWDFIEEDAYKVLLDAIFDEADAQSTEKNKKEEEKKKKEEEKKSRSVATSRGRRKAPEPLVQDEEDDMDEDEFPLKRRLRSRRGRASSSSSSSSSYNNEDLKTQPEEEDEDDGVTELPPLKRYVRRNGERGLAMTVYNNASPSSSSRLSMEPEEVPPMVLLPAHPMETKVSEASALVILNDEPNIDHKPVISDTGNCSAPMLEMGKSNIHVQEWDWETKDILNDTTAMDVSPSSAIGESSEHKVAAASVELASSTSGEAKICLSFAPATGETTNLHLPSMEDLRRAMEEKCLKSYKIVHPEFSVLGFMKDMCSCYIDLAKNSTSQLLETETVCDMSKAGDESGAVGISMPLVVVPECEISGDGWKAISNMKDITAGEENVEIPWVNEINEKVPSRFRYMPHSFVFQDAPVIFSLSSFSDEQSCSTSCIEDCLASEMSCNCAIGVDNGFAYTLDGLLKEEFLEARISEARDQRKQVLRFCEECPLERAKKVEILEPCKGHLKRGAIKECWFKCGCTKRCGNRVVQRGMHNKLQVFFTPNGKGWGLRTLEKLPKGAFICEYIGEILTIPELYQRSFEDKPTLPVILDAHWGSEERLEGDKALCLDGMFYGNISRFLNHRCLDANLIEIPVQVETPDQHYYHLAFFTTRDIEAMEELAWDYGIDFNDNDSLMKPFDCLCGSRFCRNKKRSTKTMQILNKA

[3] = target: T3, CHR19-Myc (Arabidopsis) (UniProt Q9ZUL5)
T3 sequence: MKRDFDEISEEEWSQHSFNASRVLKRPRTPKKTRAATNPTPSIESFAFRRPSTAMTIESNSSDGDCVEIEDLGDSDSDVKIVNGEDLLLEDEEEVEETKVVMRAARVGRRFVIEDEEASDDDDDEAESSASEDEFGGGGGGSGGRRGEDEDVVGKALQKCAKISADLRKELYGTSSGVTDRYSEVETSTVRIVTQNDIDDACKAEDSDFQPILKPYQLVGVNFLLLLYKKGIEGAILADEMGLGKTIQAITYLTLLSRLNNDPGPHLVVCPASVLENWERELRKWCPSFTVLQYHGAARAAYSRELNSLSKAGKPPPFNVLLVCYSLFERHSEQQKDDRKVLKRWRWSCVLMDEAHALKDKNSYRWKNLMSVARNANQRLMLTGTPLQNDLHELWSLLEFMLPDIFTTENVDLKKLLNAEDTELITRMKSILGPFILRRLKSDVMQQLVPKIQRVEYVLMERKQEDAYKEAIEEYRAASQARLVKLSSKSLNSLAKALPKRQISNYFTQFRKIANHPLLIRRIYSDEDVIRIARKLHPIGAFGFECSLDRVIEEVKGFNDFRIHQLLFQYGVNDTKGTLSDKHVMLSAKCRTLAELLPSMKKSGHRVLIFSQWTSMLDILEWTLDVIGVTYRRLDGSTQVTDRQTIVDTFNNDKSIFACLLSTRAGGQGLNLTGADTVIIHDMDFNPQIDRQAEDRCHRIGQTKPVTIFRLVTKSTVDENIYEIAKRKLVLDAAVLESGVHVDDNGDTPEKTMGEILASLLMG

Measured: binding

B1: SUVR2 (protein, UniProt Q9FNC7 1-717)
chain: MAPNLHIKKAFMAMRAMGIEDARVKPVLKNLLALYEKNWELIAEDNYRVLADAIFDSHEDQAIQESEEKKADEVKEDEGCAAEVDRGKKKLHESIEDDEDVMAESDRPLKRLRRRGEGGSALASPSLGSPTLEGPSINDEENAPILLPYHPVPIENDHDAGELILTKVEPITNMPLSSIPDSVDRGDSSMLEIDKSNGHVEEKAGETVSTADGTTNDISPTTVARFSDHKLAATIEEPPALELASSASGEVKINLSFAPATGGSNPHLPSMEELRRAMEEKCLRSYKILDPNFSVLGFMNDICSCYLDLATNGRDSANQLPKNLPFVTTNIDALKKSAARMAYTSQASNDVVEICSNEHMRDAENGAVGDSMALVVVPECQLSADEWRLISSVGDISLGKETVEIPWVNEVNDKVPPVFHYIAQSLVYQDAAVKFSLGNIRDDQCCSSCCGDCLAPSMACRCATAFNGFAYTVDGLLQEDFLEQCISEARDPRKQMLLYCKECPLEKAKKEVILEPCKGHLKRKAIKECWSKCGCMKNCGNRVVQQGIHNKLQVFFTPNGRGWGLRTLEKLPKGAFVCELAGEILTIPELFQRISDRPTSPVILDAYWGSEDISGDDKALSLEGTHYGNISRFINHRCLDANLIEIPVHAETTDSHYYHLAFFTTREIDAMEELTWDYGVPFNQDVFPTSPFHCQCGSDFCRVRKQISKGKNVKKRA
binds: all assays above
